In article PMC12325954:
Results are given in words; binding and its absence hold for the method and conditions named. Binding can be weak; no strength is given.

How the values were obtained:
[1] = molecular target: A. franciscana ATP synthase c-subunit (c8-ring) (A. franciscana (endogenous in A. franciscana mitochondria)); assay: cryo-EM structure; single-particle cryo-EM of the ATP synthase monomer purified from A. franciscana mitochondria in DDM at pH 8.0; rotational states 1, 2 and 3a; local refinement of F1, FO and peripheral stalk; both purified
[2] = molecular target: A. franciscana ATP synthase b-subunit (A. franciscana (endogenous in A. franciscana mitochondria)); assay: as above
[3] = molecular target: A. franciscana ATP synthase c-subunit (c8-ring) (A. franciscana (endogenous in A. franciscana mitochondria)); assay: cryo-EM structure; single-particle cryo-EM of the ATP synthase monomer purified from A. franciscana mitochondria in DDM at pH 7.0; rotational states 1, 2 and 3a; local refinement of F1 and FO; both purified
[4] = molecular target: A. franciscana ATP synthase b-subunit (A. franciscana (endogenous in A. franciscana mitochondria)); assay: as above

Measured: binding

B1: A. franciscana ATP synthase a-subunit (subunit 6 or ATP6) (protein, UniProt Q37708 1-219)
chain: MMASLFSVFDPTSSFLSNWLSMLIPLLFMVMSFWLIPSRPQFLAKSVLMGLNREMSLLMGPASFGANILVIALFLFILFNNFIGLFPYIFTATSHLAVTLSLAVPLWISFILYTWIKETTNALAHLVPLGTPAPLMPFMVLMEIISNMIRPITLSVRLAANMIAGHLLLTLLGAQGTLENLYVTSIVVFSQIILLMLEFSVAIIQSYVFMTLMTLYASE
binds: all assays above
